The values that follow come from paper PMC12607632.

These are yes or no findings as the source states them, for the method shown. Some entries that bind do so weakly or less than the wild type.

The assay deals with Bsp22 of B. bronchiseptica RB50 with an optimized tetracysteine tag (TC-tag) between M138 and A139 (Bsp22^TC) (Bordetella bronchiseptica RB50) (UniProt Q9REZ7). As to the kind of experiment: fluorescence microscopy after pulse-chase labelling with biarsenical dyes; Bb bsp22^TC cells in solution in reducing BLM, 1 µM ReAsH (pulse) then 1 µM FlAsH (chase), 37°C; wide-field microscopy and SIM.

“Bsp22 of B. bronchiseptica RB50 with an optimized tetracysteine tag (TC-tag) between M138 and A139 (Bsp22^TC) (from UniProt Q9REZ7 1-205)”: the binding entry is reported as “binds”.
